According to publication PMC7377239, “Cardiovascular Effects of Polychlorinated Biphenyls and Their Major Metabolites” (Environmental Health Perspectives, 2020):

System: iPSC-CMs, iPSC-ECs and HUVECs phenotypes
Assay: ToxPi 2.0 integration of POD values and physicochemical descriptors
Design: species or system human
Conditions: Biological Activity ToxPi; POD values of iPSC-CM, iPSC-EC and HUVEC phenotypes integrated
Description: Phenotypic responses were quantitatively assessed using concentration–response modeling as detailed elsewhere ([Sirenko et al. 2017]). Briefly, phenotypic readouts were normalized to vehicle controls and fit to a four-parameter logistic model in R studio software (version 3.1.1; R Development Core Team). Following EPA guidance on dose–response modeling, a cutoff of one standard deviation across means of vehicle control (i.e., 0.5% vol/vol DMSO in cell culture media) wells was applied to determine the point-of-departure (POD) values ([U.S. EPA 2012]). In the absence of a concentration–response, the highest tested concentration (i.e., 100μM ) was assigned as “no observable adverse effect level.” The concentration–response assessment R script, as well as templates for vehicle and concentration–response data, are available as a supplement to Sirenko et al. ([2017]). The ability of physicochemical properties to predict differences in PODs were evaluated by multiregression and mixed-effects modeling using R.
POD values were then integrated using ToxPi 2.0 ([Marvel et al. 2018]) software. In ToxPi, each slice is representative of cell type– and time-point–specific phenotypes. The area of each slice is proportional to the relative value (e.g., bioactivity or physicochemical descriptor value) of the chemical within the data set. ToxPi scores were used to rank PCBs and their metabolites according to their overall bioactivity and to determine variability in total observable biological responses and chemical characteristics for each major metabolite class and chlorination status (mono-, hexa-chlorinated). Additional visualizations such as dumbbell and principal components analysis plots were generated in R Studio (version 1.1.456; R version 3.5.1; R Development Core Team) using the ggplot2 package.

| SMILES | ToxPi_Score_Bioactivity |
| --- | --- |
| Oc1ccc(-c2cccc(Cl)c2)cc1Cl [4-OH-PCB 11] | 0.4299 |
| Oc1cc(Cl)c(-c2cc(Cl)ccc2Cl)cc1Cl [4-OH-PCB 52] | 0.4609 |

Same assay, conditions: Chemical-Biological Integration ToxPi; in vitro data plus physicochemical descriptors

| SMILES | ToxPi_Score_ChemBiol |
| --- | --- |
| Oc1ccc(-c2cccc(Cl)c2)cc1Cl [4-OH-PCB 11] | 0.4266 |
| Oc1cc(Cl)c(-c2cc(Cl)ccc2Cl)cc1Cl [4-OH-PCB 52] | 0.5583 |

Same assay, conditions: HUVECs, 18 hr; scaled from POD

| SMILES | huvec.mtl.18hr ToxPi | huvec.tlps.18hr ToxPi | huvec.tta.18hr ToxPi | huvec.ttl.18hr ToxPi |
| --- | --- | --- | --- | --- |
| Oc1ccc(-c2ccc(Cl)cc2)cc1 [4'-OH PCB3] | 0.99 | 1.00 | 0.58 | 0.45 |

Same assay, conditions: HUVECs, 24 hr; scaled from POD

| SMILES | huvec.cyto.24hr ToxPi | huvec.mito.24hr ToxPi | huvec.mitoint.24hr ToxPi | huvec.nma.24hr ToxPi |
| --- | --- | --- | --- | --- |
| Oc1ccc(-c2ccc(Cl)cc2)cc1 [4'-OH PCB3] | 0.28 | 0.39 | 0.43 | 0.34 |

Same assay, conditions: HUVECs, 24 hrs; scaled from POD

| SMILES | huvec.tc.24hrs ToxPi |
| --- | --- |
| Oc1ccc(-c2ccc(Cl)cc2)cc1 [4'-OH PCB3] | 0.28 |

Same assay, conditions: iPSC-CM

| SMILES | cm.amp.avg.24hrs ToxPi | cm.amp.avg.90min ToxPi | cm.amp.cv.24hrs ToxPi | cm.amp.cv.90min ToxPi | cm.bpm.24hrs ToxPi | cm.bpm.90min ToxPi | cm.cam.24hrs ToxPi | cm.cam.90min ToxPi | cm.decay.rise.24hrs ToxPi | cm.decay.rise.90min ToxPi |
| --- | --- | --- | --- | --- | --- | --- | --- | --- | --- | --- |
| Oc1ccc(-c2ccc(Cl)cc2)cc1 [4'-OH PCB3] | 1.00 | 0.59 | 0.84 | 0.33 | 0.33 | 0.82 | 0.15 | 0.86 | 0.24 | 0.57 |

Same assay, conditions: iPSC-CM

| SMILES | cm.mii.24hrs ToxPi | cm.mii.90min ToxPi | cm.mito.24hrs ToxPi | cm.mito.90min ToxPi | cm.spacing.cv.24hrs ToxPi | cm.spacing.cv.90min ToxPi | cm.tc.24hrs ToxPi | cm.tc.90min ToxPi |
| --- | --- | --- | --- | --- | --- | --- | --- | --- |
| Oc1ccc(-c2ccc(Cl)cc2)cc1 [4'-OH PCB3] | 0.50 | 0.68 | 0.21 | 0.88 | 0.19 | 0.08 | 0.22 | 0.90 |

Same assay, conditions: iPSC-EC tube formation, 18 hr; scaled from POD

| SMILES | endo.mtl.18hr ToxPi | endo.tlps.18hr ToxPi | endo.tta.18hr ToxPi | endo.ttl.18hr ToxPi |
| --- | --- | --- | --- | --- |
| Oc1ccc(-c2ccc(Cl)cc2)cc1 [4'-OH PCB3] | 0.46 | 1.00 | 0.41 | 0.41 |

Same assay, conditions: iPSC-EC, 24 hr; scaled from POD

| SMILES | endo.cyto.24hr ToxPi | endo.mito.24hr ToxPi | endo.mitoint.24hr ToxPi | endo.nma.24hr ToxPi | endo.tc.24hrs ToxPi |
| --- | --- | --- | --- | --- | --- |
| Oc1ccc(-c2ccc(Cl)cc2)cc1 [4'-OH PCB3] | 0.16 | 0.16 | 0.00 | 0.00 | 0.12 |
